Values are the deposited “Percent Effect”, in %. How 0% and 100% were set is not recorded. Most values in the screen are low, and negative values occur. Compounds were drawn at random from those tested, without regard to their results.

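Assay of Toxoplasma gondii numbers, read through their beta-galactosidase reporter with a colour substrate. Concentration: 50 µM. Higher reads as fewer parasites (inferred from which compounds were picked for retests). Of about 18,000 compounds tested this way, about 170 (0.94%) reached 50% or more in at least one test.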

SMILES,percent effect
CCOC(=O)c1ccc(S(=O)(=O)N[C@@H](C)CO)cc1,-8.557
CCN(C)C(=O)C(C)NCc1ccc2c(c1)OCCO2 (stereo not shown),3.096
CCC1CN(S(C)(=O)=O)c2ccccc2O1 (stereo not shown),-6.171
CSCC(C)C(=O)Nc1ccc(CCO)cc1 (stereo not shown),-5.403
NC1CCCN(c2ccncn2)C1 (stereo not shown),13.64
CCNC(=O)[C@H]1Cc2ccccc2CN1,6.573
O=C(CCn1cccn1)N1CCc2sccc2C1,10.78
Cc1nscc1C(=O)Nc1ccc(C(N)=O)cc1F,19.14
COC(=O)c1cn(CCO)nn1,-22.47
O=C(CN1CCn2ccnc2C1)Nc1ccc(Br)cn1,-13.58
CN(Cc1cc(Cl)cn1C)C(=O)c1ccc(CN)cc1,-0.04294
CN(C)CCC1CN(C(=O)CCc2cccs2)CCO1 (stereo not shown),-11.11
O=C(c1ccc(F)cc1)N1CCCNCC1,-12.35
C[C@H](NC(=O)COC1CCCCC1)C(N)=O,12.27
Nc1cnn(Cc2nnc3n2CCCCC3)c1,-8.436
N#Cc1cccc(CS(=O)(=O)N[C@H]2CCCNC2)c1,-4.077
CCN(Cc1ccccc1)C(=O)C1CCNCC1,-1.81
NC(=O)CN1CCCC1Cc1ccc(F)cc1 (stereo not shown),10.15
COCCOC1CCN(c2nccc3occc23)CC1,-0.4911
N#Cc1ccccc1OCc1ccc(C(N)=O)o1,10.35
C1CC(CC2COCCN2)C1 (stereo not shown),-7.154
O=c1[nH]c2cc(Cl)ccc2c(=O)n1CC1CCCO1 (stereo not shown),-23.97
Cc1ccnc(NC(=O)C2CCNCC2)c1,-5.045
c1coc(CNCC2CCCO2)c1 (stereo not shown),1.537
CN(C)CCNC(=O)c1ccc(F)cc1,-8.137
CC(C(=O)Nc1cccc(-c2nccs2)c1)S(C)(=O)=O (stereo not shown),-7.891
Cc1nnc(CNC(=O)Cc2cc(F)cc(F)c2)o1,9.568
CCN(CC)Cc1nnnn1-c1ccccc1,68.75
CC(C)Oc1ccc(C(O)CN)cc1 (stereo not shown),-8.699
CCCN(CC(N)=O)C(C)CC(=O)Nc1ccccc1 (stereo not shown),-1.248
Nc1cc(=O)[nH]n1-c1ccc(C(F)(F)F)cn1,-1.872
CCNC(=O)c1cc(O)nc2c(C)cccc12,30.97
CCC(C)CN(C)CCN (stereo not shown),8.223
COc1ccc(O)c(C(=O)NC(C)c2n[nH]c(C)n2)c1 (stereo not shown),-17.64
CNC(=O)C(C)Oc1ccc(N(C)S(C)(=O)=O)cc1 (stereo not shown),11.22
CC(C)(C)c1cc(CO)no1,-1.43
O=C(c1cnccn1)N1CCCCC1c1nccs1 (stereo not shown),7.983
COc1cc(C)c(CNC2CC(=O)N(C)C2)cc1OC (stereo not shown),0.7951
CCN(CCNC(=O)c1cscn1)C(=O)c1cscn1,-6.341
CCn1cnnc1CC1CCCNC1 (stereo not shown),13.95
CN1C(=O)C(N)Cc2ccccc21 (stereo not shown),-17.52
CCC(=O)N1CCCN(c2cncc(Cl)n2)CC1,4.137
CCCOc1cc(CNC(=O)c2nccn2C)ccn1,0.106
CO[C@H]1CNCC1NC(=O)c1ccn(C2CCCC2)n1 (stereo partly shown),-0.3677
COc1cccc2c1OCC(CNS(C)(=O)=O)C2 (stereo not shown),14.05
NC(=O)C1(NCCSCc2ccccc2)CC1,5.727
Cc1cnn(CCNCc2ccc3c(c2)OCCO3)c1,-3.086
COC(=O)c1cccc(S(=O)(=O)NC(C)C(N)=O)c1 (stereo not shown),-23.29
CC(=O)Nc1ccc(F)c(S(=O)(=O)N2CCOCC2)c1,8.119
NCCCNS(=O)(=O)c1ccc(Br)c(F)c1,16.14
CCN1CCCN(C(=O)c2cc(C3CC3)on2)CC1=O,7.828
Cc1[nH]cnc1CN1CCN(C(=O)c2cccs2)CC1,-0.7274
N#Cc1cccc(CN2CCC3(CC2)[C@H](O)C[C@@H]3O)c1,-8.652
COC(=O)C(C)CS(=O)(=O)Nc1ccc(F)cc1 (stereo not shown),5.575
COC(=O)CCC(=O)Nc1ccccc1F,-16.7
Cc1nc(N)sc1C#N,-4.384
CNC1CCN(C(=O)C2(N)Cc3ccccc3C2)CC1,-5.876
Cc1cc(C(=O)N2CCCN(C(C)(C)C)CC2)n(C)n1,-5.901
CN1N=C(C(=O)NCC2CCOC2)CCC1=O (stereo not shown),-8.451
CC(Sc1ccccc1Cl)C(=O)NCC(=O)N(C)C (stereo not shown),-29.52
CCCC(=O)N(C)c1nc2ccccc2n1C,-2.196
CCCS(=O)(=O)NCCCNC(=O)c1ccc(F)cc1,-12.01
Cc1cnc(C(=O)N2CCC(O)(CN(C)C)C2)cn1 (stereo not shown),-0.4114
CC1(C)CC(CN)CCO1 (stereo not shown),-0.6412
Cc1nscc1C(=O)OCCCn1cccn1,1.269
NC1CCN(CC(F)F)C1 (stereo not shown),-7.731
Cc1nc(-n2cccc2)sc1CO,-5.392
CN(CCO)C1=NS(=O)(=O)c2ccccc21,4.07
COCCN1CCN(CC(=O)NCC(F)(F)F)CC1C (stereo not shown),6.35
O=C(NC1CCNCC1)c1ccc(F)cc1,-0.02788
CC(C(=O)N1CCNC(=O)C1)S(C)(=O)=O (stereo not shown),-1.91
CCN1CC(C(=O)NCCCc2cnn(C)c2)CC1=O (stereo not shown),7.414
CC1CN(c2ccnc3ccc(Cl)cc23)CCS1(=O)=O (stereo not shown),-5.882
CN(C)CC(=O)N1CCCC1C(C)(C)O (stereo not shown),-5.109
COc1ccc(S(=O)(=O)N2CCN(C)CC2)c(C)c1C,5.644
N#Cc1ccc(S(=O)(=O)CCn2cccn2)c(Cl)c1,-10.26
Cc1nn(C)c(C)c1NC(=O)NCCc1c[nH]cn1,5.376
Cn1cc(C#N)cc1C(=O)NCC1CCCNC1 (stereo not shown),-12.34
Cc1nc(C(N)=O)ccc1N,-4.652
CC(C)CCNCCS(=O)(=O)N1CCSCC1,-3.171
Cc1nc(C)c(CC(=O)N[C@@H]2CCNC[C@H]2O)s1,4.255
NS(=O)(=O)N1CCN(CC(=O)N2CCCCC2)CC1,-3.894
CCC(CO)NC(=O)c1ccccc1OC(F)(F)F (stereo not shown),-10.91
CNCC1CCCN(C(=O)c2cc(F)ccc2C)C1 (stereo not shown),-1.783
Cc1cnc(NC(=O)CCCNC(=O)C(C)(C)C)s1,-4.822
CCn1cnnc1CNC(=O)C1CCC(=O)N1 (stereo not shown),-20.38
Nc1cnn(CC(=O)N2CC(N3CCCCC3)C2)c1,-23.46
COC(=O)c1c(C)[nH]c(C(=O)NC2CC2)c1C,4.929
Cc1nn(C)c(C)c1CC(=O)NC(C)c1ccncc1 (stereo not shown),-1.036
COc1cccc(OC)c1O,-11.91
CCC1CCN(C(=O)C2(CN)CCCC2)C1 (stereo not shown),-0.134
CCOc1ccc(NC(=O)CN2CCN(C)CC2)cc1,1.593
CCOC(=O)C(C)Cn1cc(Br)cn1 (stereo not shown),11.06
COc1ccc2c(c1)C(N)CCN2 (stereo not shown),-7.42
O=C(C(O)c1cc(Cl)cc(Cl)c1)N1CC[S+]([O-])CC1 (stereo not shown),-4.046
COc1ccc(CN)cc1OC(F)F,10.4
CN(C)CCCOc1ccccc1CO,3.707
COc1cc(CNC(=O)C(C)OCC(C)C)ccn1 (stereo not shown),-1.107
O=c1ccccn1CCCNS(=O)(=O)c1cccs1,4.264
CCc1cccc(NC(=O)C2(N)CC2)c1,15.39
CN(C)S(=O)(=O)c1ccc(C(=O)N2CCCC2)cc1,11.97
COc1ccc(NC(=O)NCC(C)N2CCCC2)cn1 (stereo not shown),-3.283
CNC(=O)C(C)NS(=O)(=O)c1ccc(OC)c(Cl)c1 (stereo not shown),-16.57
CCN(CC1CCOC1)S(=O)(=O)c1cnn(C)c1 (stereo not shown),2.227
O=C(c1ccccc1)N1CC[C@H](CO)[C@@H](O)C1,-7.768
Cc1cc(C)cc(C(=O)N(C)CC(=O)N(C)C)c1,-8.608
Cc1ccc(-c2csc(N3CCS(=O)(=O)CC3)n2)s1,10.59

The first 13 entries again:

| SMILES | percent effect |
|---|---|
| `CCOC(=O)c1ccc(S(=O)(=O)N[C@@H](C)CO)cc1` | -8.557 |
| `CCN(C)C(=O)C(C)NCc1ccc2c(c1)OCCO2` (stereo not shown) | 3.096 |
| `CCC1CN(S(C)(=O)=O)c2ccccc2O1` (stereo not shown) | -6.171 |
| `CSCC(C)C(=O)Nc1ccc(CCO)cc1` (stereo not shown) | -5.403 |
| `NC1CCCN(c2ccncn2)C1` (stereo not shown) | 13.64 |
| `CCNC(=O)[C@H]1Cc2ccccc2CN1` | 6.573 |
| `O=C(CCn1cccn1)N1CCc2sccc2C1` | 10.78 |
| `Cc1nscc1C(=O)Nc1ccc(C(N)=O)cc1F` | 19.14 |
| `COC(=O)c1cn(CCO)nn1` | -22.47 |
| `O=C(CN1CCn2ccnc2C1)Nc1ccc(Br)cn1` | -13.58 |
| `CN(Cc1cc(Cl)cn1C)C(=O)c1ccc(CN)cc1` | -0.04294 |
| `CN(C)CCC1CN(C(=O)CCc2cccs2)CCO1` (stereo not shown) | -11.11 |
| `O=C(c1ccc(F)cc1)N1CCCNCC1` | -12.35 |

Measurements from “University of Dundee, Small-Polar-MMV Screening Library” (2021), ChEMBL document CHEMBL3988442.